{"sequences": {"note": "Sequences of proteins named here, by UniProt entry; tags and fusion partners are left off. A change or cut given only in a name is not applied to a line headed by its entry.", "UniProt P18054": "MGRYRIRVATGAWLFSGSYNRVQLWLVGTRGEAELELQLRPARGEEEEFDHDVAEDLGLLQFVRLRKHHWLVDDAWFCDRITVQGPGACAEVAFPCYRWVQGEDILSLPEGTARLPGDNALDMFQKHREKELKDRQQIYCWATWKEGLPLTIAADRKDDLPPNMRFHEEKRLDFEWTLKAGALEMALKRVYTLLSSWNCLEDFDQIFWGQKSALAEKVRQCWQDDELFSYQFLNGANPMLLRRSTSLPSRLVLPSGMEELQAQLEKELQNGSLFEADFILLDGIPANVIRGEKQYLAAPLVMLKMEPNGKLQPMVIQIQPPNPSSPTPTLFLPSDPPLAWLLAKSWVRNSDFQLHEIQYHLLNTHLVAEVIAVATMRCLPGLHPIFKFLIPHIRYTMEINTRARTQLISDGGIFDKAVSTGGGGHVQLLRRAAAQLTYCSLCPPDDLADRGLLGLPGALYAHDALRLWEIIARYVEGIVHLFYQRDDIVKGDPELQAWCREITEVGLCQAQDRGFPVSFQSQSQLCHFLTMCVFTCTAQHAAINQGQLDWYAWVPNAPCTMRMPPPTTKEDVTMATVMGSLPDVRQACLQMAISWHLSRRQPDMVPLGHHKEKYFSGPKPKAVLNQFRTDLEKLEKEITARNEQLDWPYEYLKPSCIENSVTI"}, "source": "PubChem BioAssay AID1671190", "about": "(National Center for Advancing Translational Sciences (NCATS), 2021)", "note": "“And” between values parts separate entries of the source, which are not always exact repeats. Equal values may be shown once. Screen size: about 580,000 compounds; about 6,100 (1.1%) were called active. Inconclusive means that the source gave no clear call. Such entries were picked first, then a sample of the others. Calls follow the shape of the dose curve; as a rule, active = well fitted inhibition curve with a large enough effect; inconclusive = small, poorly fitted or top-dose-only effect, or another doubt; inactive = no such curve, though single readings can be large or run the other way. Potencies beside an inconclusive call are fits to weak or partial responses and may not hold up. % is scaled to controls: 0 for no effect and ±100 for the full control effect; potency is read from the fitted curve at half-maximal effect.", "data": [{"target": "Polyunsaturated fatty acid lipoxygenase ALOX12 (Homo sapiens) (UniProt P18054)", "assay": "Primary qHTS assay for inhibitors of human arachidonate 12S-lipoxygenase (ALOX12): Round 2", "details": "purified 12hLO, xylenol orange hydroperoxide absorbance; activity change, negative = inhibition: at 108 µM (top of the series) unless noted", "summary_of_the_method": "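Purified human 12hLO at 150 nM in 25 mM Hepes, 0.01% Triton X-100, pH 7.0, preincubated 15 min at room temperature with compound. Reaction started with 40 uM arachidonic acid, 30 min at room temperature. Hydroperoxide measured by Fe-xylenol orange, 573/405 nm absorbance ratio.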", "values": [{"smiles": "O=C(O)c1cn(Cc2ccccc2)c2ccc(Cl)cc2c1=O", "Potency": "inconclusive: 5.01 µM [inhibitor, full curve, poor fit]"}, {"smiles": "Oc1ccc(C(c2nnnn2CCc2ccccc2)N2CCN(c3nc4ccccc4s3)CC2)cc1", "note": "(configuration not stated)", "activity change, negative = inhibition": "inactive: -17.3%"}, {"smiles": "CC(C)CCN1CCN(C(=O)CCCc2ccccc2)CC1", "Potency": "inconclusive: 0.141 µM [inhibitor, full curve, poor fit]"}, {"smiles": "C/C(=N\\NC(=O)c1cccs1)C(C)(C)C", "Potency": "inconclusive: 3.98 µM [inhibitor, full curve, poor fit]"}, {"smiles": "COc1cccc(-c2nnc(SCC(=O)OC(C)C)n2N)c1", "Potency": "inconclusive: 0.0891 µM [inhibitor, full curve, poor fit]"}, {"smiles": "C=C(C)CSc1nc(N)c2c3c(sc2n1)CCC3", "Potency": "inconclusive: 56.2 µM [inhibitor, full curve, poor fit]"}, {"smiles": "Nc1nc(Cl)c(C=O)c(N2CCCCC2)n1", "activity change, negative = inhibition": "inactive: -9.29%"}, {"smiles": "Nc1nc(-c2ccccc2)c(N=Nc2ccccc2Cl)s1", "Potency": "inconclusive: 56.2 µM [inhibitor, partial curve, poor fit]"}, {"smiles": "CN(C)c1ccc(/C=N/Nc2ccc(F)cc2F)cc1", "Potency": "inconclusive: 4.47 µM [inhibitor, full curve, poor fit]"}, {"smiles": "COc1cc(OC)c2cc(C(=O)N[C@@H](C)C(=O)Nc3ccc4c(c3)OCCO4)n(C)c2c1", "Potency": "inconclusive: 39.8 µM [inhibitor, partial curve, poor fit]"}, {"smiles": "O=C(Nc1ccccc1-c1ccccc1)c1cc(Br)ccc1Cl", "activity change, negative = inhibition": "inactive: 1.36%"}, {"smiles": "C=CCOC(=O)C1=C[C@@H](c2ccccc2)C[C@@H](OCc2ccc(CO)cc2)O1", "Potency": "inconclusive: 35.5 µM [inhibitor, partial curve, poor fit]"}, {"smiles": "CCc1ccc(S(=O)(=O)c2cn(Cc3ccccc3)c3cc(N4CCCC4)c(F)cc3c2=O)cc1", "activity change, negative = inhibition": "inactive: -11.9%"}, {"smiles": "NC(c1csc(Nc2nncc3ccccc23)n1)C1CCCCC1", "note": "(configuration not stated)", "Potency": "inconclusive: 79.4 µM [inhibitor, single point]"}, {"smiles": "COc1ccc(N=C2SCC(c3ccccc3)=NN2C)cc1", "Potency": "inconclusive: 5.62 µM [inhibitor, full curve, poor fit]"}, {"smiles": "COc1ccc(Cl)cc1S(=O)(=O)Nc1ccc2[nH]c(=O)[nH]c2c1", "Potency": "inconclusive: 89.1 µM [inhibitor, partial curve, poor fit]"}, {"smiles": "O=C1CCC(C(=O)OCC(=O)N2N=C3/C(=C/c4ccccc4)CCCC3C2c2ccccc2)N1", "note": "(configuration not stated)", "activity change, negative = inhibition": "inactive: 0%"}, {"smiles": "CCN(CC)c1ccc(/C=C(/C#N)C(=O)NCc2ccccc2)o1", "Potency": "inconclusive: 50.1 µM [inhibitor, partial curve, poor fit]"}, {"smiles": "CC(C)(C)C1=Nn2c(nnc2C2CCCCC2)SC1", "Potency": "inconclusive: 3.98 µM [inhibitor, full curve]"}, {"smiles": "O=C(N/N=C/c1ccc(N2CCOCC2)s1)c1ccccc1Cl", "activity change, negative = inhibition": "inactive: -26.6%"}, {"smiles": "COc1ccc(NC(=O)CSc2oc(-c3cccs3)nc2S(=O)(=O)c2ccccc2)c(OC)c1", "Potency": "inconclusive: 126 µM [inhibitor, single point]"}, {"smiles": "Cn1cccc1C(=O)NCc1ccc(Cl)cc1", "activity change, negative = inhibition": "inactive: 4.86%"}, {"smiles": "Cc1ccccc1C(NC(C)c1ccccc1)c1ccccc1", "note": "(configuration not stated)", "Potency": "inconclusive: 0.562 µM [inhibitor, full curve, poor fit]"}, {"smiles": "COc1ccccc1Cc1c(-c2ccco2)nc2ccc(Cl)cn12", "Potency": "inconclusive: 31.6 µM [inhibitor, partial curve, poor fit]"}, {"smiles": "Cc1cccc(CNC(=O)c2cc3cc(S(=O)(=O)N4CCCCC4)ccc3n2C)c1", "activity change, negative = inhibition": "inconclusive: -31.8% [inhibitor]"}, {"smiles": "Cc1ccccc1-n1nnnc1-c1ccccc1", "Potency": "inconclusive: 7.94 µM [inhibitor, partial curve, poor fit]"}, {"smiles": "Cc1nn(-c2ccc3nnc(C)n3n2)c2c1C(c1cccc(OC(F)F)c1)CC(=O)N2", "note": "(configuration not stated)", "activity change, negative = inhibition": "inactive: -3.85%"}, {"smiles": "COc1ccc(C(=O)NCCn2cc(SCc3ccc(C(F)(F)F)cc3)c3ccccc32)cc1OC", "Potency": "inconclusive: 31.6 µM [inhibitor, partial curve, poor fit]"}, {"smiles": "COc1ccc(N2C(=S)NC3c4cc(Cl)ccc4OC2(C)C3C(=O)N(C)C)cc1", "note": "(configuration not stated)", "Potency": "inconclusive: 44.7 µM [inhibitor, partial curve, poor fit]"}, {"smiles": "COc1ccc(N2C(=O)CC(NCc3cccs3)C2=O)cc1", "note": "(configuration not stated)", "Potency": "inconclusive: 28.2 µM [inhibitor, partial curve, poor fit]"}, {"smiles": "N#Cc1ccc(/C=N/Nc2c(Cl)cc(Cl)cc2Cl)cc1", "Potency": "inconclusive: 50.1 µM [inhibitor, single point]"}, {"smiles": "COc1ccc(C2C(=O)N(C3CCCCCC3)CC(=O)N2Cc2ccccc2)cc1OC", "note": "(configuration not stated)", "activity change, negative = inhibition": "inactive: 10.9%"}, {"smiles": "O=C(Nc1ccc(Oc2ccc(Cl)cc2)c(Cl)c1)c1cc(I)cc(I)c1O", "Potency": "inconclusive: 10 µM [inhibitor, full curve, poor fit]"}, {"smiles": "Cc1c(C(=O)Nc2ccc(Cc3ccncc3)cc2)cccc1[N+](=O)[O-]", "activity change, negative = inhibition": "inactive: 18.9%"}, {"smiles": "O=C(CSc1nccn2nc(-c3ccccc3)cc12)N1CCN(c2ccccc2F)CC1", "activity change, negative = inhibition": "inactive: 2.19%"}, {"smiles": "CCS(=O)(=O)N1CCCc2cc(C(=O)Nc3c(C)cccc3C(C)C)ccc21", "activity change, negative = inhibition": "inactive: 0.204%"}, {"smiles": "Cc1cc(N2C(=O)C(O)=C(C(=O)c3ccco3)C2c2cccc(O)c2)no1", "note": "(configuration not stated)", "Potency": "inconclusive: 15.8 µM [inhibitor, full curve]"}, {"smiles": "CCc1n[nH]c(=S)n1/N=C/c1c[nH]c2ccc(Br)cc12", "Potency": "active: 15.8 µM"}, {"smiles": "CCCCN1C(=O)C(CC(=O)NCC2CCCCC2)CC(C(=O)N2CCOCC2)=C1C", "note": "(configuration not stated)", "Potency": "inconclusive: 126 µM [inhibitor, single point]"}, {"smiles": "Cc1ccc2nc(C3CCN(Cc4cccc(-c5ccsc5)c4)CC3)[nH]c(=O)c2c1", "Potency": "inconclusive: 7.94 µM [inhibitor, partial curve]"}, {"smiles": "CN1CCN(c2nc(-c3ccc(Br)cc3)nnc2-c2ccccc2)CC1", "activity change, negative = inhibition": "inactive: 5.24%"}, {"smiles": "O=C(Nc1cccc2c1CCCC2)c1cc(C2CCCCN2C(=O)c2cccs2)on1", "note": "(configuration not stated)", "activity change, negative = inhibition": "inactive: 3.58%"}, {"smiles": "COc1cccc(CNC(=O)C2CCCN(S(=O)(=O)N(C)c3ccc(F)cc3)C2)c1OC", "note": "(configuration not stated)", "activity change, negative = inhibition": "inactive: 2.13%"}, {"smiles": "COc1ccc(N(CC(=O)Nc2cccc(C)c2)S(=O)(=O)c2c(C)n[nH]c2C)cc1", "Potency": "inconclusive: 50.1 µM [inhibitor, partial curve, poor fit]"}, {"smiles": "COc1ccc(CCNS(=O)(=O)c2cccc(C(=O)O)c2)cc1OC", "Potency": "inconclusive: 7.94 µM [inhibitor, full curve, poor fit]"}, {"smiles": "Cc1ncsc1CCN(C)CC1(O)CCCNC1", "note": "(configuration not stated)", "Potency": "inconclusive: 17.8 µM [inhibitor, full curve]"}, {"smiles": "Cc1ccc2nc(NC(=O)COC(=O)c3ccc(Br)o3)sc2c1", "Potency": "inconclusive: 5.01 µM [inhibitor, partial curve, poor fit]"}, {"smiles": "COc1ccc2cc(COC(=O)C3COc4ccccc4O3)ccc2c1", "note": "(configuration not stated)", "Potency": "inconclusive: 44.7 µM [inhibitor, partial curve, poor fit]"}, {"smiles": "COc1ccc(S(=O)Cc2ccc(C(=O)NCc3cccc(OC)c3)o2)cc1", "note": "(configuration not stated)", "Potency": "inconclusive: 126 µM [inhibitor, single point]"}, {"smiles": "CCCCc1nnc(NC(=O)C(C)Sc2nc(C)cc(=O)[nH]2)s1", "note": "(configuration not stated)", "Potency": "inconclusive: 50.1 µM [inhibitor, partial curve, poor fit]"}, {"smiles": "Cc1cccn2c(=O)c(C=C(C#N)C#N)c(N3CCN(c4cccc(Cl)c4)CC3)nc12", "activity change, negative = inhibition": "inactive: -13.7%"}, {"smiles": "Cc1cc(F)c(F)c(C(=O)N2CCC(C)CC2)c1Cl", "activity change, negative = inhibition": "inactive: 4.83%"}, {"smiles": "CC(C)NC(=O)c1ccc(-n2nc(Sc3ccc(Cl)cc3)ccc2=O)cc1", "activity change, negative = inhibition": "inactive: -4.79%"}, {"smiles": "COc1ccc(-c2c(-c3ccccc3OC)sc3ccccc23)cc1F", "activity change, negative = inhibition": "inactive: -3.15%"}, {"smiles": "COc1cccc(-c2nc(C)c(C(=O)NCc3ccncc3)s2)c1", "activity change, negative = inhibition": "inactive: -4.68%"}, {"smiles": "Cc1ccc(Cl)cc1NC(=O)c1ccccc1OCC(=O)Nc1ccc(Cl)cc1", "activity change, negative = inhibition": "inactive: -20.6%"}, {"smiles": "CCCCNc1c(-c2ccc(OC)c(SC(C)CC)c2)nc2cc(C)ccn12", "note": "(configuration not stated)", "Potency": "inconclusive: 44.7 µM [inhibitor, partial curve] and inconclusive: 56.2 µM [inhibitor, partial curve, poor fit]"}, {"smiles": "N#Cc1cccc(N=c2ssnc2Cl)c1", "Potency": "inconclusive: 4.47 µM [inhibitor, full curve, poor fit]"}, {"smiles": "COC(=O)c1ccc(CSc2nnnn2-c2ccc(C)cc2C)o1", "Potency": "inconclusive: 35.5 µM [inhibitor, partial curve]"}, {"smiles": "COc1cc(C2C3=C(CC(c4ccco4)CC3=O)Nc3ccccc3N2C(C)=O)cc(OC)c1OC", "note": "(configuration not stated)", "Potency": "inconclusive: 89.1 µM [inhibitor, single point]"}, {"smiles": "COc1ccc(CN2C[C@@H](CO)O[C@@H](n3cnc4c(NCc5ccco5)ncnc43)C2)cc1", "Potency": "inconclusive: 89.1 µM [inhibitor, single point]"}, {"smiles": "O=C1c2ccccc2NC(c2ccccc2O)N1O", "note": "(configuration not stated)", "Potency": "inconclusive: 3.55 µM [inhibitor, full curve, poor fit]"}, {"smiles": "CCOc1ccccc1C1C(C(=O)Nc2ccccc2)=C(C)Nc2nc(SCC(=O)c3ccc(C)cc3)nn21", "note": "(configuration not stated)", "activity change, negative = inhibition": "inconclusive: -43% [inhibitor]"}, {"smiles": "CCOC(=O)c1c(C)oc2cc(Br)c(OC(=O)N3CCOCC3)cc12", "activity change, negative = inhibition": "inactive: 0%"}, {"smiles": "CCOc1ccc(C(C)(C)C)cc1S(=O)(=O)NCc1ccco1", "Potency": "inconclusive: 44.7 µM [inhibitor, partial curve, poor fit]"}, {"smiles": "CC(C)(C)c1ccc(C(=O)N2CC[C@H]3NC(=O)N(Cc4ccccc4)C(=O)[C@H]32)cc1", "Potency": "inconclusive: 100 µM [inhibitor, partial curve, poor fit]"}, {"smiles": "O=C(CN(Cc1ccccc1)C(=O)c1cccc([N+](=O)[O-])c1)Nc1c(Cl)cc(Cl)cc1Cl", "activity change, negative = inhibition": "inactive: 4.93%"}]}]}
